{"source": "PubChem BioAssay AID1053208 (Peter MacCallum Cancer Centre, 2014)", "aim": "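Find knock-downs that sensitise mouse osteosarcoma cells to doxorubicin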 (primary screen)", "cells": "mouse osteosarcoma cells, early-passage culture from an engineered mouse model of fibroblastic bone tumour", "knock-down reagent": "siRNA pool against mouse genes, 40 nM", "time to read-out": "about 120 h (48 h before drug, then 72 h with drug)", "conditions": "doxorubicin 100 nM for 72 h, roughly 30-40% inhibitory dose", "detection": "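Luminescent ATP signal taken as viability with or without 100 nM doxorubicin for 72 h; mean of two wells set against non-targeting siRNA and turned into robust z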", "scale": "viability z-score with doxorubicin: higher = more viable cells under doxorubicin; viability z-score without drug: higher = more viable cells with knock-down alone", "active means": "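a pool counts as active when its viability z-score with doxorubicin is -2 or below and its z-score without drug lies between -2 and 2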", "note": "The deposit covers about 17,000 reagents; below is a part drawn at random. 788 of all reagents (4.7%) count as active. 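Calls rest on z-score classes alone; an extra cut-off of viability at most 70% of control was not applied to them.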 Not all columns of the deposit are shown."}
The opening 3 records, to show the layout:
{"gene knocked down": "Phf24", "combined z-score class": "no change with or without drug", "viability z-score with doxorubicin": 1.12, "viability z-score without drug": 1.01, "outcome": "inactive"}
{"gene knocked down": "Angel1", "combined z-score class": "no change with or without drug", "viability z-score with doxorubicin": 1.35, "viability z-score without drug": 1.52, "outcome": "inactive"}
{"gene knocked down": "Eci2", "combined z-score class": "no change with or without drug", "viability z-score with doxorubicin": 1.35, "viability z-score without drug": 1.35, "outcome": "inactive"}

The listing, from the start:
{"gene knocked down": "Phf24", "combined z-score class": "no change with or without drug", "viability z-score with doxorubicin": 1.12, "viability z-score without drug": 1.01, "outcome": "inactive"}
{"gene knocked down": "Angel1", "combined z-score class": "no change with or without drug", "viability z-score with doxorubicin": 1.35, "viability z-score without drug": 1.52, "outcome": "inactive"}
{"gene knocked down": "Eci2", "combined z-score class": "no change with or without drug", "viability z-score with doxorubicin": 1.35, "viability z-score without drug": 1.35, "outcome": "inactive"}
{"gene knocked down": "Depdc1b", "combined z-score class": "no change with or without drug", "viability z-score with doxorubicin": -1.24, "viability z-score without drug": -0.51, "outcome": "inactive"}
{"gene knocked down": "Reep1", "combined z-score class": "no change with or without drug", "viability z-score with doxorubicin": 1.12, "viability z-score without drug": 1.01, "outcome": "inactive"}
{"gene knocked down": "Ackr4", "combined z-score class": "no change with or without drug", "viability z-score with doxorubicin": -1.57, "viability z-score without drug": 0.17, "outcome": "inactive"}
{"gene knocked down": "Chchd2l2", "combined z-score class": "no change with or without drug", "viability z-score with doxorubicin": -0.22, "viability z-score without drug": 1.01, "outcome": "inactive"}
{"gene knocked down": "Or4a71", "combined z-score class": "no change with or without drug", "viability z-score with doxorubicin": -0.11, "viability z-score without drug": -1.52, "outcome": "inactive"}
{"gene knocked down": "Mttp", "combined z-score class": "no change with or without drug", "viability z-score with doxorubicin": -0.45, "viability z-score without drug": -1.69, "outcome": "inactive"}
{"gene knocked down": "Or10g1", "combined z-score class": "no change with or without drug", "viability z-score with doxorubicin": 0.34, "viability z-score without drug": -0.51, "outcome": "inactive"}
{"gene knocked down": "Tmem260", "combined z-score class": "no change with or without drug", "viability z-score with doxorubicin": -0.45, "viability z-score without drug": -0.84, "outcome": "inactive"}
{"gene knocked down": "Tcf25", "combined z-score class": "no change with or without drug", "viability z-score with doxorubicin": -0.22, "viability z-score without drug": -0.51, "outcome": "inactive"}
{"gene knocked down": "C130050O18Rik", "combined z-score class": "no change with or without drug", "viability z-score with doxorubicin": -1.8, "viability z-score without drug": 0.17, "outcome": "inactive"}
{"gene knocked down": "Spsb3", "combined z-score class": "no change with or without drug", "viability z-score with doxorubicin": 0.79, "viability z-score without drug": -0.51, "outcome": "inactive"}
{"gene knocked down": "Tmem86a", "combined z-score class": "no change with or without drug", "viability z-score with doxorubicin": -0.22, "viability z-score without drug": 0.67, "outcome": "inactive"}
{"gene knocked down": "Tk1", "combined z-score class": "no change with or without drug", "viability z-score with doxorubicin": -0.45, "viability z-score without drug": -0.84, "outcome": "inactive"}
{"gene knocked down": "Or51a8", "combined z-score class": "no change with or without drug", "viability z-score with doxorubicin": -1.12, "viability z-score without drug": -0.51, "outcome": "inactive"}
{"gene knocked down": "Fads2", "combined z-score class": "no change with or without drug", "viability z-score with doxorubicin": 0.56, "viability z-score without drug": 0.17, "outcome": "inactive"}
{"gene knocked down": "Dnajc27", "combined z-score class": "no change with or without drug", "viability z-score with doxorubicin": -0.11, "viability z-score without drug": -0.17, "outcome": "inactive"}
{"gene knocked down": "Bmf", "combined z-score class": "no change with or without drug", "viability z-score with doxorubicin": -1.46, "viability z-score without drug": -0.84, "outcome": "inactive"}
{"gene knocked down": "Clip4", "combined z-score class": "no change with or without drug", "viability z-score with doxorubicin": -1.57, "viability z-score without drug": 1.85, "outcome": "inactive"}
{"gene knocked down": "Krt16", "combined z-score class": "no change with or without drug", "viability z-score with doxorubicin": -0.22, "viability z-score without drug": -0.51, "outcome": "inactive"}
{"gene knocked down": "Chst15", "combined z-score class": "no change with or without drug", "viability z-score with doxorubicin": 0.9, "viability z-score without drug": -0.51, "outcome": "inactive"}
{"gene knocked down": "Gask1b", "combined z-score class": "no change with or without drug", "viability z-score with doxorubicin": 1.8, "viability z-score without drug": 1.35, "outcome": "inactive"}
{"gene knocked down": "Rnase1", "combined z-score class": "no change with or without drug", "viability z-score with doxorubicin": -1.35, "viability z-score without drug": -1.18, "outcome": "inactive"}
{"gene knocked down": "Serpina9", "combined z-score class": "no change with or without drug", "viability z-score with doxorubicin": 0.34, "viability z-score without drug": -0.84, "outcome": "inactive"}
{"gene knocked down": "Eml3", "combined z-score class": "no change with or without drug", "viability z-score with doxorubicin": 0.11, "viability z-score without drug": -0.84, "outcome": "inactive"}
{"gene knocked down": "Zc3h3", "combined z-score class": "no change with or without drug", "viability z-score with doxorubicin": 0, "viability z-score without drug": 0.84, "outcome": "inactive"}
{"gene knocked down": "Gltp", "combined z-score class": "no change with or without drug", "viability z-score with doxorubicin": -0.56, "viability z-score without drug": -0.51, "outcome": "inactive"}
{"gene knocked down": "Prdm13", "combined z-score class": "high cell count without drug only", "viability z-score with doxorubicin": 1.8, "viability z-score without drug": 2.36, "outcome": "inactive"}
{"gene knocked down": "Gsap", "combined z-score class": "no change with or without drug", "viability z-score with doxorubicin": 0.56, "viability z-score without drug": 0.84, "outcome": "inactive"}
{"gene knocked down": "B330016D10Rik", "combined z-score class": "high cell count with doxorubicin only", "viability z-score with doxorubicin": 2.36, "viability z-score without drug": 1.18, "outcome": "inactive"}
{"gene knocked down": "Nanos3", "combined z-score class": "no change with or without drug", "viability z-score with doxorubicin": 1.35, "viability z-score without drug": 1.69, "outcome": "inactive"}
{"gene knocked down": "Nkx2-2", "combined z-score class": "no change with or without drug", "viability z-score with doxorubicin": 0.67, "viability z-score without drug": -0.67, "outcome": "inactive"}
{"gene knocked down": "Rab2b", "combined z-score class": "no change with or without drug", "viability z-score with doxorubicin": -1.12, "viability z-score without drug": 0.51, "outcome": "inactive"}
{"gene knocked down": "Or10h1b", "combined z-score class": "no change with or without drug", "viability z-score with doxorubicin": 0.22, "viability z-score without drug": 0.67, "outcome": "inactive"}
